Measurements: PMC2262068
Negatives hold for the conditions tested. Protein sequences can lack the tags named with them. For at least one entry, the source does not settle the construct or the ends of the probe.

How the values were obtained:
[1] = target: T1, ArcA-P (His6-ArcA phosphorylated with carbamoyl phosphate) (Shewanella oneidensis MR-1) (UniProt Q8EAB9); assay: EMSA; settings: 10 mM MgCl2, 2 mM DTT, 0.2 ug/ul poly(dI-dC), 10% glycerol, 15 C, 60 min, recombinant protein, protein details: N-terminal His6 (pDEST17), label: 33P
T1 sequence (looked up, limits assumed): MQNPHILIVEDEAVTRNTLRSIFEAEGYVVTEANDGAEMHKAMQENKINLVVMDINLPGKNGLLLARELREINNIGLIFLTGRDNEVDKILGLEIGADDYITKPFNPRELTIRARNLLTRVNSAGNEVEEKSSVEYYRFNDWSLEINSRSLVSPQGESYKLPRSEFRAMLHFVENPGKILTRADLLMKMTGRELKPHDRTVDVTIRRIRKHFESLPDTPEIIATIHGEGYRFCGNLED

[2] = target: T2, ArcA (His6-ArcA, unphosphorylated) (Shewanella oneidensis MR-1) (UniProt Q8EAB9); assay: EMSA; settings: unphosphorylated ArcA; 100 mM Tris/HCl pH 7.4, 20 mM KCl, 10 mM MgCl2, 2 mM DTT, 0.2 ug/ul poly(dI-dC), 10% glycerol, 15 C, 60 min; 2-5 nM 33P-labeled probe; recombinant protein; protein details: N-terminal His6 (pDEST17); label: 33P; only the motif is given
T2 sequence (looked up, limits assumed): T1 sequence (looked up, limits assumed)

[3] = EMSA: 100 mM Tris/HCl pH 7.4, 20 mM KCl, ~2-5 nM probe, probe letters rebuilt from the primers and the genome
[4] = ArcA phosphorylated with carbamoyl phosphate, 100 mM Tris/HCl pH 7.4, 20 mM KCl, 2-5 nM 33P-labeled probe, only the motif is given

Row | Sequence | binding result [1, 4] | also measured
1 | TAAATCCTGAGATTGGCCCACATTTATCCGCCGAGCGTGTTTATCACGATAATGCTTGGCTGCTGTACGCCTTATTGCTGCCCGCTGTGGTGATCCACGCCATGATTGGTTTGTACCGTGTGGCGGTTAAGTGGGGCATAACGGCTCAGCGTTCAGGTTTACGTAAACTCGCTAAGGTTTTGATTATCTATTTGTTGTGCCTTGGTAGCGCCAGCTTAGTTGCTTATATGCTTATCGGCAGCGAGTTGAGCATTCCTGTGCAGCCCTACGTGCCCCAGTGATTTGATTGCCAATCCTGCTGCGTTGCCCTGTAATGGATCGTCTCGGCAGGATTTTGTTTAGCTGCGACTCGTTTTAATTTGTTTTACCGCTAATAGTTAAGCATTCGATGAATTATTCACCCTCTAGTTGATCTAACTCAGGTTTGTTGTTGGATTTGTGAGCGATATTAATTTTCGAGGATAGGACTTAATCACTCTGGCTCGATGAAGCTGGTGGCGCGAGGCGAAAGCAATGGCAATCAAACTAAG (double strand) [so0397-9 (fdrC) promoter] |  | binding result [1, 3]: no binding
2 | GTTAATTAAATTATA (double strand) [so3099] | binds | 
3 | GTTATTCAAATGTAA (double strand) [so2727] | binds | 
4 | GTTAAATAATTGTTA (double strand) [so1661] | binds | binding result [2]: no binding
5 | GTTGAAAAAATGTAA (double strand) [so2706 (astB)] | binds | 
6 | GTTACTTTATTGTTA (double strand) [so1623 (ptsG)] | binds | 
7 | CTAACAGATAAGCTTGCGGCAACTTTTAATGATTTCATCGTTAATTTCCTTTTTACTTTAAAAAGCTTTGGATACAACAATGCCTATACCTAATTAAATATATTAATGGCATTAAAATTAGATATGGCTATTCCGCGTGCAGATATGATGAGGCAATAAGTCGCTTTAGAATAAAATAAATAGATTTATTCCAAGTGAGTGACTTAGCCGCAGTTTTACTGCACTAACAAAAATGCTTTGATTTGAATGCGAGACAATAAGCCTTGTAAAACAGTAAAGTAAGTGCATAAGCCTATAATGGCAATACCACTTTTGACCTGTTAATTGGCCTACTACCTACGCGAAGATTAGCGAAGGAAGATAAATGAATGGTCGAAATAGTCACGTTGGCTAGGCATCATGATATGTCTAGTACGTCGGATATGTGCCATGATCTTAGATTTCCTCTTCATATACAACTCCATTATGAAAGTAGAGAAAATTATTGGTTTTTATTACGGGGTGGATTTTATCTGTGTGTTATCAATAAAAATATGATCC (double strand) [so0314 (speF) promoter] |  | binding result [1, 3]: no binding
8 | GTAAAATCGATGTTA (double strand) [so3659] | no binding | 
9 | GTAATTTAAATGTTA (double strand) [so0866] | binds | 
10 | GTTAATTAATTGTTG (double strand) [so3565 (cpdB)] | binds | 
11 | TTTACGATATGCTTCTAGCACGGCAACATTCCTCTTTGTTTGGCGCTCTAACAACGAAACTGCACGTCTTCTCAATTGAAGCTGACAGTCCGACATGATCGACCCGTATTTCCGGCCAGCAGTATACTACAGCTTTGCAAAAGTATGAATCAGGTCACACTCGGCAAAAGACGAAATAAGGGCTAAATCCGGAGGTGCAACTCAACTTACGGCATGAATAAAACAATGGAAATTAGACAATAGTTTGAAAACAGATAAAAAACCATAATCTACAGATAGTTAATATAAGTTCATCAATTTAAAATCGAACGAACATTTTTCTGATAACGAAATGCTTTTCACAGTAAATATTTCTCAACTTTGTGTATTTAGGCTTTGAAGATAGCGGGCTTAAACTTACACTCAAGCTCCAATAACCCATTTCCCGTCCTTTGGAGTAGTAATGACATCCCTTAGCATTCAAGCCGTCATTTTTGATATGGATGGCGTTTTAATCGATTCTGAACCCCTATGGCAGCGGGTTGAATATGAAGTCTTATCCGCCCTCGGTGTGCCTGTCACTCTCGAAAC (double strand) [so0432 (acnB) promoter] |  | binding result [1, 3]: no binding
12 | GTTAAAAAAATGTGA (double strand) [so4245 (argA)] | binds | 
13 | GTTAATAAAATGTTT (double strand) [so1427-30] | binds | 
14 | GTTAATTTGATGTTA (double strand) [so1821] | binds | 
15 | GTTAATTAAATGTCA (double strand) [so2099-5 (hoxK)] | binds | 
16 | GTTAAGTAATTGTAA (double strand) [so1944] | binds | 
17 | TTTAAAAATATGTTA (double strand) [so0756 (aroG)] | binds | 
18 | GTTAACAAAGCGATA (double strand) [so1307 (aqpZ)] | binds | 
19 | GTTAACTCAATGTTA (double strand) [so3507] | binds | 
20 | GTAAATTAATTGTTA (double strand) [so3106 (aprE)] | binds | 
21 | CGTTACGCTTATCATCCTGCTTTTACCCTTTGATGGTTTGTTGACACCTCTTTGCAAACTACACGATAGCAGTAACAAAATACCCGACTGAGCGTCACAGATTTAAAGCGTGAGATAACTCACGGGGTGAACATCAACTCTTAGAAGATGATCACAAAAACAAGGTAAAAAACCAAACAAAGGTAAAACCAATTAACCATTATATTTCATAGCTTTATACTAAATATCGAAACGAGTGGTTTGCATTTGCGTACAACAAAATGCTGACCCAATAACGCCTTGTCAATGCAGGAATAAAAGCCATTTTTATCTAAACGTGACGATAGAAACCCATTTACACAACCAGAGTTAAAAACGGCTTTGTTATGGTAATTTCTCGCCAAATCCTGCCGCTTAAGATGGTTTGGGTATACAATAGCGCGATATTTTTTAACCCTAGCCACAGGATTTACCCCATGCCTTGGATCCAACTCCGCATTAACACTAACAGTGATGATGCTGAAACCATCAGCGACTTACTCATGGAAGAAGGCGCAGTCTCTATTACTTTTGAAGATGGTAAAGACACCCCGATCTTTGAACCTAAACTG (double strand) [so0396 (frdC) promoter] |  | binding result [1, 3]: no binding
22 | GAAAATTTTTTGTTA (double strand) [so0806] | binds | 
23 | GTGAACAGAATGTTA (double strand) [so0266-9 (ccmF-1)] | binds | 
24 | GTTAATTGATTGTAA (double strand) [so3855 (sfcA)] | binds | 
